For the data set, the system named is plasma membrane of live SH-SY5Y cells. Briefly: LIESS-FCS diffusion measurement in the plasma membrane. Format: cell-based, human.

The results in this text go back to patent publication EP3964511A1, “BIOORTHOGONAL CHOLESTEROL PROBE AND USES THEREOF” (Universidad del País Vasco/Euskal Herriko Unibertsitatea, priority 2020, dated 2022).

Turning to `CC(CCCN=[N+]=[N-])C1CCC2C3CC=C4CC(O)CCC4(C)C3CCC12C` (centres unmarked) [chol-N3, 17-(5-azidopentan-2-yl)-10,13-dimethyl-2,3,4,7,8,9,10,11,12,13,14,15,16,17-tetradecahydro-1H-cyclopenta[a]phenanthren-3-ol], the “Drat (ratio between the diffusion coefficient by STED and confocal)” value is on record as “≈ 1” (500 nm region where resident time is smaller in STED than in confocal mode (free diffusion)); less than 1 (zone where transit time is similar for STED and confocal spots (trapped state)).
